Source: patent US20090233850A1
These are yes or no findings as the source states them, for the method shown. Binding can be weak; no strength is given. Tags and fused reporters may be left off the sequences shown.

Tests used:
[1] = target: AN1 gp120 (ancestral clade B HIV envelope) (HIV-1 (ancestral clade B)); test: ELISA, 100 ng adsorbed gp120, 50 nM binder, polyclonal anti-CVN detection
[2] = target: HIV-1 92UG21-9 gp120 (Clade A) (HIV-1 92UG21-9); test: as above
[3] = target: HIV-1 93MW959 gp120 (Clade C) (HIV-1 93MW959); test: as above
[4] = target: HIV-1 CM235 gp120 (circulating recombinant CRF01-AE) (HIV-1 CM235); test: as above
[5] = target: SIV PBj2-8 envelope glycoprotein (SIV PBj2-8); test: as above
[6] = target: AN1 gp120 (ancestral clade B HIV envelope) (HIV-1 (ancestral clade B)); test: ELISA, 100 ng gp120 adsorbed on the plate, 50 nM L5, detection with polyclonal anti-CVN, BSA background subtracted
[7] = target: HIV-1 92UG21-9 gp120 (Clade A) (HIV-1 92UG21-9); test: as above
[8] = target: HIV-1 93MW959 gp120 (Clade C) (HIV-1 93MW959); test: as above
[9] = target: HIV-1 CM235 gp120 (circulating recombinant CRF01-AE) (HIV-1 CM235); test: as above
[10] = target: SIV PBj2-8 envelope glycoprotein (SIV PBj2-8); test: ELISA, 100 ng envelope glycoprotein adsorbed on the plate, 50 nM L5, detection with polyclonal anti-CVN, BSA background subtracted

Measured: binding

B1: L5 chimera (CVN-12p1): CVN, linker of five Gly4Ser repeats, 12p1, C-terminal hexa-histidine tag (protein)
chain: LGKFSQTCYNSAIQGSVLTSTCERTNGGYNTSSIDLNSVIENVDGSLKWQPSNFIETCRNTQLAGSSELAAECKTRAQQFVSTKINLDDHIANIDGTLKYEGSGGGGSGGGGSGGGGSGGGGSGGGGSRINNIPWSEAMMHHHHHH
binds: [1] | [2] | [3] | [4] | [5] | [6] | [7] | [8] | [9] | [10]
